In the assay the target is T1, TMEM132A-SBP-CBP-Flag (from pSCDTG(P)-T132A, TMEM132A-SBP-CBP-Flag-T2A-turbo GFP) (mouse) (UniProt Q922P8).
T1 sequence: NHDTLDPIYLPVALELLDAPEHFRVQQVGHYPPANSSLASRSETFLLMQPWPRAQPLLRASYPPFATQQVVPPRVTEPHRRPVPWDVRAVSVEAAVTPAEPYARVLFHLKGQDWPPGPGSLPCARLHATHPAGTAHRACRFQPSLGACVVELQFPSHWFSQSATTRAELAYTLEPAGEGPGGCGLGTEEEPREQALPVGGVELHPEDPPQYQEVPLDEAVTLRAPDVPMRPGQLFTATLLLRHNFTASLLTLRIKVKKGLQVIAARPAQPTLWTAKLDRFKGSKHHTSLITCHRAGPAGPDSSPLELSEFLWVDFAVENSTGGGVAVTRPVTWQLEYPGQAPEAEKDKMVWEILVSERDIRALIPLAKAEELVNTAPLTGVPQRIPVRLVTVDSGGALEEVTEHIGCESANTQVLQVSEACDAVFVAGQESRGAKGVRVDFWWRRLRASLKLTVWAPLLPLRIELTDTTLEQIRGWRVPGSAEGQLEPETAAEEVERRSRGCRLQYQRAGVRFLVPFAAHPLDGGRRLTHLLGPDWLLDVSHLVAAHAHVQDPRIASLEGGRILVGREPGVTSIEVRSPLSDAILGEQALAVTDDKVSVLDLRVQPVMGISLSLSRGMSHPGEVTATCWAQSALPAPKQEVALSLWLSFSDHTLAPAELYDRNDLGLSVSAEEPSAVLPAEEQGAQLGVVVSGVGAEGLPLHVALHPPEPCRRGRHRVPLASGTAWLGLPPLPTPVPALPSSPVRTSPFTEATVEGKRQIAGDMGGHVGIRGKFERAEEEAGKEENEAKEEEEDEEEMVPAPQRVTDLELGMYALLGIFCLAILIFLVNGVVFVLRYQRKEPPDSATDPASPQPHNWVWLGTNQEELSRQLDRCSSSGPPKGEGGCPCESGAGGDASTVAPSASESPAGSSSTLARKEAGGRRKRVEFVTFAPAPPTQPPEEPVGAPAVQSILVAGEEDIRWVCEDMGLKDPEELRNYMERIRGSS
The assay is described as follows: affinity purification with mass spectrometry; HEK 293T cells with stable integration of TMEM132A-SBP-CBP-Flag; tandem affinity purification (InterPlay TAP kit), FASP, mass spectrometry; control vector pSCDTG(P).

Results are given in words; binding and its absence hold for the method and conditions named. Binding seen in cells or lysates may run through a third protein. Here binding means that the protein was enriched with, or labelled near, the bait; the list need not be complete. Tags and fused reporters may be left off the sequences shown.

B1: endogenous WLS of HEK 293T cells (protein, UniProt Q5T9L3 1-541)
chain: MAGAIIENMSTKKLCIVGGILLVFQIIAFLVGGLIAPGPTTAVSYMSVKCVDARKNHHKTKWFVPWGPNHCDKIRDIEEAIPREIEANDIVFSVHIPLPHMEMSPWFQFMLFILQLDIAFKLNNQIRENAEVSMDVSLAYRDDAFAEWTEMAHERVPRKLKCTFTSPKTPEHEGRYYECDVLPFMEIGSVAHKFYLLNIRLPVNEKKKINVGIGEIKDIRLVGIHQNGGFTKVWFAMKTFLTPSIFIIMVWYWRRITMMSRPPVLLEKVIFALGISMTFINIPVEWFSIGFDWTWMLLFGDIRQGIFYAMLLSFWIIFCGEHMMDQHERNHIAGYWKQVGPIAVGSFCLFIFDMCERGVQLTNPFYSIWTTDIGTELAMAFIIVAGICLCLYFLFLCFMVFQVFRNISGKQSSLPAMSKVRRLHYEGLIFRFKFLMLITLACAAMTVIFFIVSQVTEGHWKWGGVTVQVNSAFFTGIYGMWNLYVFALMFLYAPSHKNYGEDQSNGDLGVHSGEELQLTTTITHVDGPTEIYKLTRKEAQE
Regarding B1, the binding entry was “binds”.

For the origin of these results see article PMC7726220.
